Measured values reported in patent EP3415523A1, “COMBINATION MEDICAMENT COMPRISING A PRODRUG AND INHALABLE CATALYST” (priority 2017, dated 2018).
The name of at least one read-out is uncertain.

Tests used:
[1] = Kinetics of deprotection (gemcitabine), HPLC-MS, platinum nanoparticles and hydrogen gas; format: physicochemical; details: Fig. 5, deprotection followed by HPLC-MS, F-12K medium, 0.1 µM, platinum 200 ppm solution, hydrogen gas at 1 bar
[2] = Kinetics of deprotection (coumarin), fluorescence, platinum nanoparticles and hydrogen gas in cell culture medium; format: physicochemical; details: for t1/2: platinum nanoparticles 3 nm, hydrogen gas at 1 bar, not stirred

Structure (SMILES)	reaction half-life [1]	reaction half-life ([2]; Fig. 3, deprotection reaction followed by fluorescence measurements)	t1/2 ([2]; deprotection reaction in F-12K medium)	t1/2 ([2]; deprotection reaction in MEM medium)
O=C(Nc1ccn([C@@H]2O[C@H](CO)[C@@H](O)C2(F)F)c(=O)n1)OCc1ccc([N+](=O)[O-])cc1 [gemcitabine prodrug, p-Nitrobenzyloxycarbonyl Gemcitabine]	about 10 min			
Cc1cc(=O)oc2cc(NC(=O)OCc3ccc([N+](=O)[O-])cc3)ccc12 [protected coumarin, p-Nitrobenzyloxycarbonyl Coumarin]		about 10 min	approximately 10 minutes	approximately 10 minutes
